Laboratory results from patent US12371460B2, “Glycan-binding proteins and related compositions and methods” (priority 2019, dated 2025).
For at least one compound, name, drawing or mass did not settle the structure.

Sequences of proteins named here, by UniProt entry; tags and fusion partners are left off. A line that says so, or that is headed by a name, gives the form on record, which may keep a tag or linker.
UniProt P61991, other isoform, or with tags, fused parts or gaps with the stated changes: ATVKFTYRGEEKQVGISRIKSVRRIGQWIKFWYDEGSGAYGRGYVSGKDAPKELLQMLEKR

Target: Sulfolobus solfataricus Sso7d (rcSso7d, SEQ ID NO: 1) variant Clone B5, SEQ ID NO: 403 (Saccharolobus solfataricus, UniProt P61991, A45Y/D16G/E48G/G38S/K19R/K22S/K28Q/K40A/K7T/K9R/M29W/Q62R/S31K/T33W/T41Y/V26I/W24R)
Assay: BLI with soluble, expressed Clone B5
Conditions: read-out: binding constant

CC(=O)N[C@H]1[C@H]([C@H](O)[C@H](O)CO)OC(O)(C(=O)O)C[C@@H]1O (stereo partly shown) [Neu5Ac]
Kd: 25 to 30 nM
